# Assay results: PubChem BioAssay AID493014 (National Center for Advancing Translational Sciences (NCATS), 2011)
# Some of the results follow. The main result of the screen is listed elsewhere. These columns were measured beside it and carry no call. Most of these compounds were active or inconclusive in the main read-out, so they are no random draw. Potencies come from curve fits of mixed quality, noted in brackets.
# Experiment: qHTS Assay to Find Inhibitors of Chronic Active B-Cell Receptor Signaling
# Conditions: ABC-DLBCL IkBa-CBG/CBR reporter, luminescence ratio (green luciferase fused to IkBa over red control in TMD8 lymphoma cells), 4 h
# Procedure, shortened: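 TMD8 ABC-DLBCL cells carrying doxycycline-inducible green luciferase fused to IkappaBalpha plus unfused red luciferase were exposed to compounds (up to 46 uM) for 4 hrs at 37C. Activity came from the overlap-corrected green/red luminescence ratio.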
# [1] = measured here: CBR red luminescence, cell number
# [2] = measured here: IkBa-CBG green luminescence
SMILES,AC50 [1],AC50 [2]
O=C1c2ccccc2C(=O)C2OC12 (configuration not stated),"0.316 µM [rising, full curve, poor fit]",–
Cc1cccc(Nc2cc(=O)[nH]c(=O)[nH]2)c1,"23.1 µM [falling, single point]",–
Cc1cc(=O)[nH]c(N/N=C/c2c(F)c(F)c(F)c(F)c2F)n1,"2.51 µM [falling, partial curve, poor fit]",–
Cc1ccc(S(=O)c2snnc2C)cc1 (configuration not stated),"0.708 µM [rising, full curve, poor fit]",–
OCCCc1nc2ccccc2n1CCOc1ccccc1,"11.2 µM [falling, partial curve]",–
Cn1nnnc1SCCNCc1ccc(F)cc1,"3.55 µM [rising, full curve]",–
Cc1ccc(C)c(-n2cc(CNCCc3cnccn3)c(-c3ccccc3)n2)c1,"0.501 µM [rising, partial curve, poor fit]",–
COc1cccc(C(=O)N(C)c2nnc(-c3ccncc3)s2)c1,"10 µM [rising, partial curve, poor fit]",–
Cc1cccc(-c2nc(CS(=O)CC(=O)NCc3cccs3)c(C)o2)c1 (configuration not stated),"1.3 µM [rising, full curve, poor fit]",–
CC(C)C(=O)Nc1cccc(-c2nc3ccccc3c(=O)o2)c1,"16.4 µM [falling, single point]",–
O=C(O)c1ccc(N/N=C/c2cccc3cccnc23)cc1,"0.1 µM [falling, partial curve, poor fit]",–
CCOC(=O)c1c(C)[nH]c(C(=O)N/N=C/c2cc([N+](=O)[O-])ccc2O)c1C,"15.8 µM [falling, partial curve, poor fit]",–
COc1ccc(-c2cc3cc(-c4cc(OC)c(OC)c(OC)c4)ccc3o2)cc1,"7.31 µM [rising, partial curve, poor fit]",–
Cc1ccc(NC(=S)N2CCC(N(C)CC3CCCO3)CC2)cc1C (configuration not stated),"12.6 µM [rising, partial curve, poor fit]",–
Cc1nc(-c2ccccc2)sc1C(=O)CSc1ccc(F)cc1,"1.64 µM [rising, full curve]","3.26 µM [rising, full curve, poor fit]"
O=C(O)CCSc1nc2ccc(Br)cc2[nH]1,"35.5 µM [falling, single point]",–
N#CCCN1CCN(C(=S)c2ccc(-c3cc(Cl)ccc3Cl)o2)CC1,"1.12 µM [falling, full curve, poor fit]",–
COc1ccc(NC(=O)CN(C)C(=O)c2cccc(Oc3ccccc3)c2)cc1,"29.1 µM [falling, single point]",–
O=C1/C(=C/c2cccc(F)c2)Oc2cc(O)ccc21,–,"12.6 µM [rising, partial curve, poor fit]"
COc1nc(-c2ccccc2)ncc1S(=O)(=O)c1ccccc1,"11.2 µM [rising, partial curve, poor fit]",–
Cn1cccc1C(=O)OCc1csc(-c2ccccc2)n1,"5.01 µM [falling, partial curve]",–
CC(C)Cc1cc(C(=O)NCCc2ccccc2)no1,"18.4 µM [falling, single point]",–

SMILES,AC50 [1],AC50 [2]
COc1ccc(NC(=O)c2cc3c(CO)cnc(C)c3oc2=Nc2cccc(C)c2)c(OC)c1,"35.5 µM [rising, single point]",–
O=C(CN1C(=O)c2cccnc2Oc2ccc(Cl)cc21)NC1CCCC1,"3.55 µM [falling, partial curve, poor fit]",–
O=C(Nc1cccc(F)c1)Nc1ccc2c(c1)C(=O)OC2,"0.891 µM [rising, full curve, poor fit]",–
CCCCn1c(NS(=O)(=O)c2ccc(C)cc2)c(S(=O)(=O)c2ccccc2)c2nc3ccccc3nc21,–,"3.66 µM [falling, full curve, poor fit]"
COc1ccccc1/C=C1\SC(=S)N(N2C(=O)CCCC2=O)C1=O,"12.6 µM [falling, partial curve, poor fit]",–
O=[N+]([O-])c1cc(O)c2ncccc2c1,"0.447 µM [rising, partial curve, poor fit]","1.26 µM [falling, full curve, poor fit]"
COc1ccc(C2Nc3ccccc3C(=O)N2Cc2ccco2)cc1CN1C(=O)c2ccccc2C1=O (configuration not stated),"3.55 µM [falling, full curve]",–
CC(=O)Nc1ccc(/C=N/Nc2nc3ccccc3[nH]2)cc1,"18.4 µM [falling, single point]",–
Cc1ccc(NC(=O)c2cnc(SCC(=O)N3CCOCC3)n(C)c2=O)cc1,"10 µM [falling, single point]",–
COC(=O)COc1cccc(NC(=O)c2ccc(Cl)cc2)c1,"15.8 µM [falling, single point]",–
CCOC(=O)N1CCN(C(=O)CCCOc2ccccc2)CC1,"29.1 µM [rising, single point]",–
CCOc1ccccc1NC(=O)CC1SC(=N)N(c2ccccc2)C1=O (configuration not stated),"35.5 µM [falling, single point]",–
O=Cc1ccc(-c2ccc(C(=O)O)cc2)o1,"5.01 µM [falling, partial curve]",–
COc1ccc(CN2CCN(Cc3cccc(OC)c3)C(CCO)C2)cc1 (configuration not stated),"6.31 µM [rising, single point]",–
Cc1ccc2c(=O)[nH]c(Nc3nc(C)cc(-c4ccccc4)n3)nc2c1,"0.282 µM [falling, full curve, poor fit]",–
CN1CCN(c2oc(/C=C/c3ccccc3)nc2C#N)CC1,"35.5 µM [rising, single point]",–
COc1ccc(NC(=O)c2sccc2C)cn1,"15.8 µM [falling, partial curve, poor fit]",–
CCOC(=O)N1CCC(NC(=O)c2ccc3c(c2)N=C(C)c2c(C)ccc(C)c2S3)CC1,"3.55 µM [rising, single point]","7.08 µM [falling, full curve]"
Cc1cc(Cn2nnnc2-c2ccncc2)cc(C)c1O,"5.01 µM [rising, full curve, poor fit]",–
COC(=O)c1ccccc1NC(=O)c1cccs1,"25.9 µM [rising, single point]",–
CCCCNS(=O)(=O)c1ccc2nc(-c3cccnc3)cc(C(=O)NCC(OC)OC)c2c1,"10 µM [rising, partial curve, poor fit]",–
COc1ccc(-n2c(COc3ccc(Cl)cc3)nnc2SCc2ccc(C#N)cc2)cc1,"2.91 µM [falling, full curve]",–

SMILES,AC50 [1],AC50 [2]
N=c1c2c(ncn1CCN1CCOCC1)Oc1ccc3ccccc3c1C2c1ccccc1 (configuration not stated),"3.26 µM [falling, partial curve, poor fit]",–
COc1ccc(N2C(=O)N3[C@H](c4ccc(Cl)cc4)[C@@H]4C(=O)N(C5CCCCC5)C(=O)[C@@H]4[C@]3(C)C2=O)cc1,–,"3.55 µM [rising, full curve, poor fit]"
COc1ccc(S(=O)(=O)Nc2ccc3c(c2)C(=O)N([C@H](C)CO)C[C@H](C)[C@@H](CN(C)S(C)(=O)=O)O3)cc1,"20.6 µM [rising, single point]",–
COc1ccc(/C=N/Nc2nncn2N)cc1Br,"35.5 µM [falling, single point]",–
O=C(CCl)Nc1nc(-c2ccco2)c(-c2ccco2)s1,"7.31 µM [falling, partial curve]",–
Cc1ccc(C(=O)NC2CCc3ccccc3C2=O)cc1 (configuration not stated),"22.4 µM [falling, partial curve]",–
COc1cc2c3nnc(-c4ccc(F)cc4)c-3cn(Cc3ccccc3)c2cc1OC,"29.1 µM [rising, single point]",–
Cc1cc(/C=N\NC(=O)COc2cccc3cccnc23)c(C)n1-c1ccccc1,"5.17 µM [rising, full curve, poor fit]",–
Cc1ccc2nc(NCc3ccccc3)c(C=NCc3cccnc3)c(=O)n2c1,"4.47 µM [rising, full curve, poor fit]",–
COc1ccc(C(=O)Nc2cccc(C(=O)NCc3ccco3)c2)cc1,"35.5 µM [falling, single point]",–
O=c1cc(CN2CCOCC2)c2c(ccc3ccccc32)o1,"10 µM [rising, partial curve, poor fit]",–
CC(NC(=S)Nc1cccc(C(F)(F)F)c1)C(C)(C)C (configuration not stated),"0.0891 µM [falling, full curve, poor fit]",–
O=C1CN(C(=O)COC(=O)CCSc2ccccc2Cl)c2ccccc2N1,"8.2 µM [rising, partial curve]",–
Cc1ccccc1NC(=O)c1ccc(-c2ccc(Cl)cc2Cl)o1,"16.4 µM [falling, partial curve]",–
Cn1c(Nc2ccc(Cl)cc2)cc(=O)n(C)c1=O,"7.08 µM [rising, partial curve]",–
CC(C)OC(=O)c1ccc(NC(=S)NC(=O)c2cncc(Br)c2)cc1,"6.31 µM [rising, partial curve, poor fit]",–
O=C(Nc1ccc(Cl)c([N+](=O)[O-])c1)c1ccncc1,"25.9 µM [rising, partial curve]",–
CCC1=NN2C(=N)/C(=C/c3cc(C)n(-c4ccccc4)c3C)C(=O)N=C2S1,"3.16 µM [falling, single point]",–
O=C(NC1=NCCS1)C1CCN(S(=O)(=O)c2cc([N+](=O)[O-])ccc2Cl)CC1,–,"23.1 µM [falling, partial curve, poor fit]"
CC1CCN(c2c(NCc3ccc(C(=O)NCc4cccnc4)cc3)c(=O)c2=O)CC1,"25.9 µM [rising, single point]",–

# A draw from above in order of molecular weight, largest number first.
SMILES,AC50 [1],AC50 [2]
N=c1c2c(ncn1CCN1CCOCC1)Oc1ccc3ccccc3c1C2c1ccccc1 (configuration not stated),"3.26 µM [falling, partial curve, poor fit]",–
O=C(NC1=NCCS1)C1CCN(S(=O)(=O)c2cc([N+](=O)[O-])ccc2Cl)CC1,–,"23.1 µM [falling, partial curve, poor fit]"
CC(C)OC(=O)c1ccc(NC(=S)NC(=O)c2cncc(Br)c2)cc1,"6.31 µM [rising, partial curve, poor fit]",–
CC1CCN(c2c(NCc3ccc(C(=O)NCc4cccnc4)cc3)c(=O)c2=O)CC1,"25.9 µM [rising, single point]",–
COc1cc2c3nnc(-c4ccc(F)cc4)c-3cn(Cc3ccccc3)c2cc1OC,"29.1 µM [rising, single point]",–
O=C1CN(C(=O)COC(=O)CCSc2ccccc2Cl)c2ccccc2N1,"8.2 µM [rising, partial curve]",–
Cc1cc(/C=N\NC(=O)COc2cccc3cccnc23)c(C)n1-c1ccccc1,"5.17 µM [rising, full curve, poor fit]",–
Cc1ccc2nc(NCc3ccccc3)c(C=NCc3cccnc3)c(=O)n2c1,"4.47 µM [rising, full curve, poor fit]",–
COc1ccc(C(=O)Nc2cccc(C(=O)NCc3ccco3)c2)cc1,"35.5 µM [falling, single point]",–
Cc1ccccc1NC(=O)c1ccc(-c2ccc(Cl)cc2Cl)o1,"16.4 µM [falling, partial curve]",–
O=c1cc(CN2CCOCC2)c2c(ccc3ccccc32)o1,"10 µM [rising, partial curve, poor fit]",–
Cc1ccc(C(=O)NC2CCc3ccccc3C2=O)cc1 (configuration not stated),"22.4 µM [falling, partial curve]",–
O=C(Nc1ccc(Cl)c([N+](=O)[O-])c1)c1ccncc1,"25.9 µM [rising, partial curve]",–
Cn1c(Nc2ccc(Cl)cc2)cc(=O)n(C)c1=O,"7.08 µM [rising, partial curve]",–
